Laboratory results: the supplement of paper PMC5949888
Most values lie at the floor of the assay. Slopes are relative: functional sequences can read slightly below zero.

tested on: Saccharomyces cerevisiae PS128 hsf1 delta, HSF1(1-493) fusion; assay: growth estimate (transactivation domain function in HSF1 fusion, heat-shock survival) (a.u. (slope of normalised read count over time)); higher = stronger growth at 37°C, i.e. more transactivation activity; conditions: library: random library

Substance	growth estimate
HPGTRN	< -0.25
TCR	< -0.25
RPGKPVFMGGMT	< -0.25
CCFTSCQGPSAGDRQHPWCG	< -0.25
ETYEGHAVFHHLRIAGAKSW	< -0.25
SVHSPAMEVDFPSFWTLQRT	< -0.25
LGRGQLNTAPPDYVLR	< -0.25
IVVATSEKLAGSNAYGCCTM	< -0.25
FKRLSLG	< -0.25
SSKFSSRGSYSLLGIVRNG	< -0.25
GNVPP	< -0.25
IWSRRIES	< -0.25
LLEPMPRDGKGRVPDSCTQA	< -0.25
GLEIRKA	< -0.25
QIVTIIQVRETYQPYRNK	< -0.25
GFRR	< -0.25
HATAP	< -0.25
NQHISDPRLDVSKGCFSRLS	< -0.25
GGCACLIWCTEPR	-0.245
KCSHDV	< -0.25
SGHL	< -0.25
GGAYSTR	< -0.25
LESPVNVPYRRGMLPTIEIG	< -0.25
ELLQALGVCGQTRVNGTRVD	< -0.25

Substance	growth estimate
ENCFILGERDPNDSCGAT	< -0.25
FELGGGCFDARVPY	< -0.25
SSRPEPRRPWARRTNGESNL	< -0.25
TSHCKIADSSGPRFSVRLIG	< -0.25
AGGLTLHSGKPYTMDLTYQT	< -0.25
RSSGGLGAGGNEEVCGTLDS	< -0.25
GVRARPTGTQWRFNRCFAPL	< -0.25
ADDAPGGWAT	< -0.25
WPVERWVSGE	< -0.25
FLAPT	< -0.25
DGDCAGVGHAARGTYGVSGA	< -0.25
ELATAAKST	< -0.25
GQFTKEIGS	< -0.25
REASMNCSAPPASELNTGLD	< -0.25
PTQRDSAIGLALYRVTSRLD	< -0.25
STVKTGGSAIVLLYYPRGKR	< -0.25
VPEGVFRRAH	< -0.25
KECLEYDNVGPRTCEAL	< -0.25
RKQVGTCTTRDGLGWLGISP	-0.246
DILVTQRLSFNNTTDASYFC	< -0.25
VGVL	< -0.25
DTEHRNLKV	< -0.25
INLLPRSDPRYGHG	-0.233
SCIKIGKFIRKNLLNATPRH	< -0.25

Substance	growth estimate
CRVECGNGDLSRHLGGILAV	< -0.25
PPFASRPRWRPGSSGRASLT	< -0.25
VVLRSHREVHF	< -0.25
VDVWDWKGSWRAEGKVDALQ	< -0.25
SVSGSRLSVTFGFRQRSVWL	< -0.25
DQVANIVMGGVPPENRVAPD	< -0.25
KNYNPAGDAL	< -0.25
PITNAGTLSWKSRNIARVGR	< -0.25
LASERSSWAQWKLRNSDCNG	< -0.25
QNWDGVSMRALRPDGVLTAW	< -0.25
PGPCLMASPLH	< -0.25
HFPASLRDRTTRPT	< -0.25
LKFFSHRQERLLCPWHSKND	< -0.25
HKS	< -0.25
LSGTGHKSRG	< -0.25
WMESGDIA	< -0.25
RRGRVSRSA	< -0.25
LREPRGGQVAGSTRGEKPNV	< -0.25
FNASGNRLTARAMIVVLRVH	< -0.25
DTHHRSGKDQSLKGVLDQRL	< -0.25
NRSFQSLVIKWKEVRDSDVH	< -0.25
VCPGNIKPQSARDP	< -0.25
ASSFKRLLYYWES	< -0.25
CVDSTEHWPGNLYNGGRDST	< -0.25

Substance	growth estimate
YRSRSDGAAIAFSMG	< -0.25
REYEFRQSRRWPRL	< -0.25
TCD	< -0.25
RSREFRLRQHKLETSVFVLR	< -0.25
GGLHLVRMEKGSGDSGRWMG	< -0.25
VTSHLFNIG	< -0.25
LCEVGSHG	-0.243
ESSRVCTIDLLFETPA	< -0.25
RSDQGSFGQGMSGRIRTHES	< -0.25
NIPVCTTLGPMVANQV	-0.204
SGDNLSTGTQESLLDACAK	< -0.25
VFSSGTRSITAATRFFDSFA	< -0.25
WLHTLGSYS	< -0.25
SCGPSA	< -0.25
KVKSRSVYSQRLITVILRVT	< -0.25
RAGNGAH	< -0.25
PLPSRKVKPFRALRVG	< -0.25
DHYCPGGYATKDNAWALPTA	< -0.25
KSISTTVKEVD	< -0.25
LSPKNWNMRV	< -0.25
VHPTGMTISPRWTTMGQLLT	< -0.25
DDEGLSGRKVEPVE	< -0.25
LQDLTLFAE	< -0.25
PDMATYHRWVLETPGARKSK	< -0.25

Copied from above for reference:
Substance	growth estimate
VTSHLFNIG	< -0.25
LCEVGSHG	-0.243
ESSRVCTIDLLFETPA	< -0.25
RSDQGSFGQGMSGRIRTHES	< -0.25
NIPVCTTLGPMVANQV	-0.204
SGDNLSTGTQESLLDACAK	< -0.25
VFSSGTRSITAATRFFDSFA	< -0.25

Continued:

Substance	growth estimate
RQIRYYSVRQDQQGPAPTRF	< -0.25
RIL	< -0.25
VPRRHLGQRKWRALHSQ	< -0.25
SPRSPTLVR	< -0.25
GHAIRWLRCH	< -0.25
NQGTLLYHGGPNCDNNIRTL	< -0.25
SWPLRQSRCSSYG	< -0.25
KVDSCRGHMKA	< -0.25
GCCFRRDSYPCEWEYRRVSW	< -0.25
ANPH	< -0.25
VLDSWSFGPHGMLIENKTAY	< -0.25
CCLTLGISSRGYVSGPRVEE	< -0.25
HTRQ	< -0.25
PWSSVTFSVGREQTSADTRW	< -0.25
PKTPNT	< -0.25
QPSCS	< -0.25
GAGGIQDTRTDYPEMMRKTA	< -0.25
AETPRH	< -0.25
GPEPHS	< -0.25
YLDSVCHPFRLGSEGEYSRV	< -0.25
HSLVKVGHSNGIKGRWTLSA	< -0.25
VLKGIRAAL	< -0.25
TKRPILCIKHLSCSRNERAK	< -0.25
RSVICAVILRVHRRRPRMSK	< -0.25

Substance	growth estimate
NSFEYDVMLSSGDSCKNGRV	< -0.25
MFV	< -0.25
VAVRKLPWAQHRTLRRLSVR	< -0.25
SGGVCRSHHQILR	< -0.25
FQVVVERVHSAVRSPRSITP	< -0.25
AVCGRCFYSGQTGRVMTGHS	< -0.25
CHPIIPNG	< -0.25
NLGDRDKPRLRRSRSMPIRT	< -0.25
AESVWWSSMPRATQRRLPLH	< -0.25
ASVIRSTAPRYGFDRINYPL	< -0.25
GGIVRHWSLVALKGRFSPRA	< -0.25
SIWGVRHGPPGLRGRGKA	< -0.25
CSEFLELPAERH	< -0.25
PVVATSRTGRLVTWPNKPVL	< -0.25
PEHHNAAIAPHPSWKCADAS	-0.243
TTLTVWTLCHSKGPAPAASP	< -0.25
RFVEAIR	< -0.25
AGQQARISCTLVRTYVLRRV	< -0.25
EPKVVTSRNGGVYPVPITPP	< -0.25
PGRRVWWKPAPIGRRLETSI	< -0.25
SSNLVEAFVRDRATYRKDLP	< -0.25
PHEEAISASPQVARCMLAAE	< -0.25
GIKASR	< -0.25
LGHHHRH	< -0.25
